Several values for one entry are separate records, joined by “and”; a condition that tells them apart may be missing. Equal values may be shown once.
Test: peptide synthesis
[1] = late stage modification step, HPLC-UV

Substance | purity (crude or final not stated) (HPLC-UV) | final HPLC purity (purification step, % area, run 1) | final HPLC purity (purification step, % area, run 2) | final HPLC purity (purification step, % area, run 3) | final HPLC purity (purification step, % area, run 4) | final HPLC purity (purification step, HPLC-UV, run 1) | step yield (purification step, theoretical yield, run 1) | step yield (purification step, theoretical yield, run 2) | step yield (purification step, theoretical yield, run 3) | step yield (purification step, theoretical yield, run 4) | difficulty met (late stage modification step) | crude HPLC purity [1] | final HPLC purity [1] | step yield (late stage modification step, uncorrected for residual solvents)
Boc-D-Arg-DMT-Lys(Boc)-Phe-NH2 | 97.50% | 98.51% | 98.63% | 99.24% | 98.44% | 98.63% and 99.24% and 98.44% | 85.06% | 88.97% | 31.57% | 84.39% |  |  |  | 
D-Arg-DMT-Lys-Phe-NH2 |  |  |  |  |  |  |  |  |  |  | formation of isopropyl ester analog as well as several t-butylated analogs as impurities | 98.41% a/a and 98.08 area % | 98.07 area % | 96%
